# Reference: patent US20190224278A1, “PRODUCING METHOD OF ANTIMICROBIAL PEPTIDE WITH ENHANCED ADHESION AND USES THEREOF” (Intelligent Synthetic Biology Center, priority 2018, published 2019)
# At least one peptide structure holds a part that was inferred or is arguable (an end, a ring closure or a residue). Non-standard residues stand in square brackets, D forms with d. Residues, ends and D or L forms follow the SMILES beside them. Dopa = N[C@@H](Cc1ccc(O)c(O)c1)C(=O)O
# How the values were obtained:
# Type in all cases: cell-based
# [1] = tested on: Pseudomonas aeruginosa; assay: Antimicrobial activity of coated surfaces, colony counting; conditions: polystyrene, titanium, PDMS coated at 200 μM for 10 minutes; cultured 2 hours
# [2] = tested on: Staphylococcus aureus; assay: as above; conditions: polystyrene, titanium, PDMS coated at 200 μM for 10 minutes; cultured 2 hours
# [3] = tested on: Escherichia coli; assay: Bacterial adhesion on coated surface, SYTO9/PI staining, confocal microscopy; conditions: confocal chamber slide, 37° C., 24 hours
# [4] = tested on: Pseudomonas aeruginosa; assay: as above; conditions: confocal chamber slide, 37° C., 24 hours
# [5] = tested on: Staphylococcus aureus; assay: as above; conditions: confocal chamber slide, 37° C., 24 hours
compound,measurement,setting,value
CC[C@H](C)[C@H](NC(=O)CNC(=O)[C@H](CCCCN)NC(=O)[C@H](CCCCN)NC(=O)[C@H](CCC(N)=O)NC(=O)[C@H](CC(C)C)NC(=O)[C@H](CCCCN)NC(=O)[C@H](CC(C)C)NC(=O)[C@H](CC(C)C)NC(=O)[C@H](CCCCN)NC(=O)[C@H](CCCCN)NC(=O)[C@H](CC(C)C)NC(=O)[C@H](CC(C)C)NC(=O)[C@H](CCCCN)NC(=O)[C@H](CCSC)NC(=O)[C@H](C)NC(=O)[C@H](CCCCN)NC(=O)[C@@H]1CCCN1C(=O)[C@H](C)N)C(=O)NCC(=O)NCC(=O)NCC(=O)NCC(=O)N[C@@H](CO)C(=O)NCC(=O)NCC(=O)NCC(=O)NCC(=O)N[C@@H](CO)C(=O)N[C@@H](Cc1ccc(O)c(O)c1)C(=O)N[C@@H](Cc1ccc(O)c(O)c1)C(=O)N[C@@H](Cc1ccc(O)c(O)c1)C(=O)N[C@@H](Cc1ccc(O)c(O)c1)C(=O)N[C@@H](Cc1ccc(O)c(O)c1)C(=O)O [NKC-(G4S)2-DOPA5] (H-APKAMKLLKKLLKLQKKGIGGGGSGGGGS[Dopa][Dopa][Dopa][Dopa][Dopa]-OH),killing on coated surfaces,[1],all of them were killed
same,killing on coated surfaces,[2],all of them were killed
same,bacteria present on the coated surface,[3],a very small amount of dead bacteria was present
same,bacteria present on the coated surface,[4],a very small amount of dead bacteria was present
same,bacteria present on the coated surface,[5],a very small amount of dead bacteria was present
